For one molecule, binding results are on record in patent US20250059278A1.

Results are given in words; binding and its absence hold for the method and conditions named. A result given as binding can be weak or reduced; the word gives no strength.

This experiment deals with monkey MSLN-his (Kaika Biotech, MSL-CM180) (monkey (cyno)). Briefly: ELISA screening on coated MSLN-his. On the technique in general: An ELISA detects its analyte on a solid surface through an enzyme-linked reagent.

B1: MSLN single-domain antibody 3C6 (VHH)
VHH: EVQLVESGGGLVQAGESLRLSCAVSGNIGSIRHMGWHRQDPGKERELVATITTVGTTYYANFVKGRFTISRDNAKNTVYLQMNSLKPEDTGVYYCRATAHPTDYWGQGTQVTVSS
Regarding B1, the binding entry is recorded as “binds”.
